Data taken from ChEMBL document CHEMBL3988442, “University of Dundee, Small-Polar-MMV Screening Library” (2021).

Values are the deposited “Percent Effect”, in %. How 0% and 100% were set is not recorded. Most values in the screen are low, and negative values occur. The compounds are a random part of those screened. Two or more numbers in one place are separate tests of the same structure; such repeats can differ widely.

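Viability assay of Plasmodium falciparum sporozoites; the read-out is not stated. The concentration is filed as 10 mM, unlikely as a test dose, so the dose is not known. The record gives no direction; compounds that gave an IC50 in retests scored well above the rest, so higher reads as lower viability. Strong results were mostly tested again. Size under these conditions: about 34,000 compounds, about 280 of them at 50% or above in at least one test.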

| # | Compound | Percent Effect |
|---|---|---|
| 1 | `CC(c1ccc(F)c(F)c1)N1CCN(Cc2nccn2C)CC1` (centres unmarked) | 10.79 |
| 2 | `COCCn1cc2c(n1)C(CNCc1cccc(OC)c1)OCC2.O=C(O)C(F)(F)F` (centres unmarked) | 9.386 |
| 3 | `c1cnc2[nH]c(C3CCCC3)c(CN3CCOCC3)c2c1` | 0.9993 |
| 4 | `Cc1[nH]/c(=N\C(=O)c2csc(NC3CCCC3)n2)sc1C` | 52.39 & 34.41 |
| 5 | `COC(=O)c1ccc(CNCc2ccn(C)n2)cc1` | 11.39 |
| 6 | `c1ccc(N2CCc3ncnc(C4CC4)c3CC2)nc1` | -20.07 |
| 7 | `O=C(C1CC1)N1CCC2(CCN2Cc2ccc(F)cc2)C1.O=C(O)C(F)(F)F` (centres unmarked) | -7.268 |
| 8 | `COc1cccc(CN(C)CC2=Nc3ccccc3S(=O)(=O)N2)c1` | 1.173 |
| 9 | `CC(C)c1noc(C(C)N2CCN(Cc3noc(C(C)(C)C)n3)CC2)n1` (centres unmarked) | -5.064 |
| 10 | `CC(=O)N1CCCC1c1nnc2n1CCCCC2` (centres unmarked) | -3.833 |
| 11 | `Cc1cc(C2CCCN2CCCc2nc3ccccc3o2)on1` (centres unmarked) | -164.6 |
| 12 | `Cc1ccc(-c2nc(CNC3CCc4ncnn4C3)cs2)cc1` (centres unmarked) | -3.81 |
| 13 | `O=C(O)[C@H]1CCCN1CCOc1cccc(Cl)c1` | 9.059 |
| 14 | `CCc1nccn1C1CCCN(C(=O)c2cc[nH]n2)C1` (centres unmarked) | -0.5325 |
| 15 | `Cc1nc(C)n(C2CCCN(C(=O)Cc3cccnc3)C2)n1` (centres unmarked) | -4.059 |
| 16 | `COc1cc2ccccc2cc1C(=O)N1CCCC(c2nncn2C)C1` (centres unmarked) | 4.66 |
| 17 | `O=C(COc1ccccc1Br)N1CCOc2ccncc21` | -1.404 |
| 18 | `CCN1CCCC(c2c(-c3ccccc3)ncn2CCc2c[nH]cn2)C1` (centres unmarked) | -5.876 |
| 19 | `O=C(NS(=O)(=O)c1cc(Cl)sc1Cl)c1cccc2c1OCCO2` | -12.87 |
| 20 | `O=C(c1nc(Cc2c[nH]c3ccccc23)no1)N1CCOCC1` | -4.67 |
| 21 | `O=C(NCCn1nc2ccccn2c1=O)c1cc[nH]n1` | -18.42 |
| 22 | `Cc1ccnc(C2CCCN2C(=O)CN(C)C)n1` (centres unmarked) | 6.9 |
| 23 | `CC(C)(C)n1ncc2c1CCCC2NCc1cccc2c1OCO2` (centres unmarked) | 74.58 & 37.95 & 70.91 |
| 24 | `CO[C@H]1CCN(Cc2ccoc2)C[C@@H]1Cc1ccccc1.O=C(O)C(F)(F)F` | 14.81 |
| 25 | `Cc1cccc(OCCC(=O)N(C)CCC#N)c1C` | -18.15 |
| 26 | `Cc1cc(N2CCCC2(C)c2nc(C)cc(C(=O)N(C)C)n2)ncn1` (centres unmarked) | -0.3121 |
| 27 | `CC1c2ncc(CN3CCN(C)CC3)n2CCN1Cc1cnn(C)c1.O=C(O)C(F)(F)F.O=C(O)C(F)(F)F.O=C(O)C(F)(F)F` (centres unmarked) | 2.193 |
| 28 | `COc1ccc(-n2ccc(CNCc3cccc(OC)c3)n2)cc1` | 6.257 |
| 29 | `O=C(Nc1ccc(Cl)cc1)c1nn(C2CCS(=O)(=O)C2)c2c1CCCC2` (centres unmarked) | -17.96 & -20.43 |
| 30 | `Cc1cc(C)n(C2CCCN(C(=O)c3csc(C4CC4)n3)C2)n1` (centres unmarked) | 5.835 |
| 31 | `COC(C(=O)N1CCCN(Cc2cscn2)CC1)c1ccccc1` (centres unmarked) | -2.803 |
| 32 | `CC(C)N1CCCC2(CCN(C(=O)CCCn3cccn3)C2)C1=O` (centres unmarked) | -13.56 |
| 33 | `CCc1nc(-c2ccc(C(=O)N3CCC4(CC3)OCCO4)cc2)no1` | -0.6358 |
| 34 | `Cc1cccc(NS(=O)(=O)c2cc3c(c(C(=O)O)c2)OCCO3)c1` | -4.247 |
| 35 | `CCOc1ncccc1C(=O)N1CCCC(c2nncn2C)C1` (centres unmarked) | -2.415 |
| 36 | `CCN1CC2(CC1=O)CN(C(C)=O)CCN(C(=O)NC)C2` (centres unmarked) | -0.5993 |
| 37 | `Cn1cc(C[C@H]2[C@H](O)CCN2Cc2ccncc2)cn1.O=C(O)C(F)(F)F.O=C(O)C(F)(F)F` | -4.725 |
| 38 | `Cc1noc(C)c1CCC(=O)N1CCCN(Cc2cscn2)CC1` | 9.563 |
| 39 | `CC(C)CN1CC(O)CN(S(=O)(=O)c2ccc(F)cc2)CC1=O` (centres unmarked) | -27.25 |
| 40 | `COCc1cnc2n1CCN(C(=O)c1cc3cc(Cl)ccc3o1)C2C` (centres unmarked) | 10.99 |
| 41 | `CC(OCc1ccccc1)C(=O)NCc1ccc(N(C)C)cc1` (centres unmarked) | -3.027 |
| 42 | `CN(Cc1ccc(Cl)cc1)S(=O)(=O)N(C)Cc1cnn(C)c1` | -7.387 |
| 43 | `O=C(NCCN1CCCCC1)C(c1ccccc1)N1CCCC1` (centres unmarked) | -8.534 |
| 44 | `O=C(O)C(F)(F)F.[H][C@@]12CNCC[C@]1([H])OC[C@H](C(=O)NCCc1cccs1)C2` | -0.6857 |
| 45 | `CCn1cc(-c2n[nH]c(=O)n2-c2ccc(OC)c(OC)c2)c(C)n1` | -0.7018 |
| 46 | `O=C(NCCCc1ccncc1)C1CCCN(Cc2ccco2)C1` (centres unmarked) | -367.2 |
| 47 | `[H][C@@]12COC[C@]1(C(=O)NCCc1cccs1)CN(S(C)(=O)=O)C2` | 20.02 |
| 48 | `O=C(O)C(F)(F)F.O=C(O)C(F)(F)F.[H][C@@]12CN(Cc3cc[nH]n3)C[C@]1([H])OCCN2C(C)C` | -1.857 |
| 49 | `CSCC(=O)N(C)Cc1ccc(N(C)C)cc1` | -7.432 |
| 50 | `[H][C@@]12CCCO[C@]1([H])[C@@H](OC)CN2S(=O)(=O)c1cn(C)cn1` | -2.487 |
| 51 | `O=C(C1CCCCC1)N1CCCC([C@@H]2C[C@H](C(F)F)n3ncnc3N2)C1` (some centres unmarked) | -4.856 |
| 52 | `O=C(O)c1ccc2c(c1)C1(CCCCC1)CN2C(=O)c1cccs1` | 12.17 & 8.623 |
| 53 | `c1ccc2c(N3CCCCC3Cn3cccn3)ncnc2c1` (centres unmarked) | 13.14 |
| 54 | `CN1CCN(S(=O)(=O)c2cccc(F)c2)Cc2cccnc21.O=C(O)C(F)(F)F` | 10.46 |
| 55 | `CCCN1CCCC(O)(c2nc(C)c(COc3ccccc3)s2)CC1` (centres unmarked) | 3.616 |
| 56 | `O=C(O)C(F)(F)F.O=C(O)C(F)(F)F.[H][C@@]12C[C@@H](OCc3ccccn3)CN1CCN(C(=O)c1ccc(F)cc1)C2` | -9.829 |
| 57 | `Cn1ccnc1CN1CCC2(CC1)COC2.O=C(O)C(F)(F)F` | -4.195 |
| 58 | `Cc1noc(Cl)c1CCC(=O)N1CCN(CC(C)(C)O)CC1` | -5.476 |
| 59 | `Cc1ccc(CN2CCc3ncnc(C4CCOC4)c3CC2)s1.O=C(O)C(F)(F)F` (centres unmarked) | 8.55 |
| 60 | `Cc1nc(O)cc([C@@H]2CN(S(=O)(=O)N(C)C)C[C@H]2c2ccccc2F)n1` | 12.73 |
| 61 | `CCC(C)n1c(SCC(=O)N2CCOCC2)nc2cc(C)[nH]c2c1=O` (centres unmarked) | 1.181 |
| 62 | `CCNC(=O)NC(=O)CNC(C)(C)c1ccc2c(c1)OCO2` | 3.468 |
| 63 | `Cc1nnc(NCC2(c3ccc(Cl)cc3Cl)CCOCC2)c(C#N)c1C` | 8.824 |
| 64 | `Cc1ccc(CN2CCCC2(C(N)=O)c2cnccn2)c(C)c1` (centres unmarked) | 5.396 |
| 65 | `Cc1cc(=O)c2cc(F)ccc2n1CC(=O)O` | -12.02 |
| 66 | `CCN(CC)c1ncnc2c1CCN(c1ccc(C)nn1)CC2` | 5.254 |
| 67 | `CCOc1cc(=O)n2c(c1C(=O)OCc1cccc(C)c1)CCCC2` | -8.333 |
| 68 | `CC(NC(=O)NCCc1nc(C(F)(F)F)cs1)C(=O)N(C)C` (centres unmarked) | -0.9126 |
| 69 | `c1csc(-c2noc(CN3CCc4cncnc4C3)n2)c1` | 24.87 & 17.34 & 36.23 |
| 70 | `O=C(CS(=O)(=O)Cc1cc(Cl)c2c(c1)OCO2)N1CCCCCC1` | 5.076 |
| 71 | `OC(CNCCn1cccn1)c1ccc2c(c1)OCCO2` (centres unmarked) | -6.127 |
| 72 | `COCCNC(=O)c1sc(Nc2ccc(Cl)cn2)nc1C` | 0 |
| 73 | `Cc1cnn(CC2CCCN2CC(=O)NC2CCN(C3CC3)CC2)c1` (centres unmarked) | 43.14 & 16.78 & 10.45 |
| 74 | `CS(=O)(=O)c1ccc(CNC(=O)N2CCC(c3ccccc3)CC2)cc1` | -6.332 |
| 75 | `O=C(O)C(F)(F)F.O=C(O)C(F)(F)F.[H][C@@]12CCN(Cc3ccc(F)cc3)[C@]1([H])CC[C@H](COCc1cccnc1)O2` | -7.552 |
| 76 | `CN(C)Cc1ccnc(C2CN(Cc3nccs3)CCO2)n1` (centres unmarked) | 0.6662 |
| 77 | `O=C(c1cc(=O)c(OCc2ccccc2)co1)N1CCSCC1` | -8.629 |
| 78 | `Cc1ccc(-c2nnc(SCC(=O)O)n2-c2ccccc2)cc1` | 9.26 |
| 79 | `Cc1cc(CN(C)C(=O)NCc2ccccn2)no1` | -1.654 |
| 80 | `Cc1noc(C)c1CC(=O)N1CCc2sccc2C1` | -2.463 |
| 81 | `O=C(O)C(F)(F)F.[H][C@@]12CCC(=O)N(CCOC)[C@]1([H])CCN2Cc1ccc(C)s1` | 7.407 |
| 82 | `COc1ccccc1N1CCN(C(=O)CCn2nnnc2C)CC1(C)C` | 4.973 |
| 83 | `COCCNC(=O)C1CN(Cc2cccc(C)n2)Cc2ccnn2C1.O=C(O)C(F)(F)F.O=C(O)C(F)(F)F` (centres unmarked) | 15.15 |
| 84 | `[H][C@@]12CN(S(C)(=O)=O)C[C@]1(C(=O)NC)CCC21CCN(C(C)=O)CC1` | 0.2307 |
| 85 | `CCOC(=O)N1CCC(OC)c2ccccc2N(CC(=O)NC)C(=O)C1` (centres unmarked) | -30.79 |
| 86 | `CCOCC(O)CN1CCN(C(=O)c2cc(C)ccc2F)CC1` (centres unmarked) | 2.489 |
| 87 | `NCC1(c2cccc(C(F)(F)F)c2)CC1` | 3.905 |

6 of the entries, repeated:

{"compound": "O=C(c1cc(=O)c(OCc2ccccc2)co1)N1CCSCC1", "Percent Effect": -8.629}
{"compound": "COC(C(=O)N1CCCN(Cc2cscn2)CC1)c1ccccc1", "stereo": "centres unmarked", "Percent Effect": -2.803}
{"compound": "Cn1cc(C[C@H]2[C@H](O)CCN2Cc2ccncc2)cn1.O=C(O)C(F)(F)F.O=C(O)C(F)(F)F", "Percent Effect": -4.725}
{"compound": "COCCNC(=O)C1CN(Cc2cccc(C)n2)Cc2ccnn2C1.O=C(O)C(F)(F)F.O=C(O)C(F)(F)F", "stereo": "centres unmarked", "Percent Effect": 15.15}
{"compound": "Cc1cc(CN(C)C(=O)NCc2ccccn2)no1", "Percent Effect": -1.654}
{"compound": "Cc1noc(C)c1CC(=O)N1CCc2sccc2C1", "Percent Effect": -2.463}